Results on three molecules are retold here after publication PMC12501352.

No constants are given. Whether binding was seen depends on the method and setting. Binding seen in cells or lysates may run through a third protein. Some results given as binding are weak or reduced against the parent protein; the word gives no strength.

In experiment [1] the target is T1, Plin1 (human (endogenous in Mac-ADSCs)) (UniProt O60240).
T1 sequence: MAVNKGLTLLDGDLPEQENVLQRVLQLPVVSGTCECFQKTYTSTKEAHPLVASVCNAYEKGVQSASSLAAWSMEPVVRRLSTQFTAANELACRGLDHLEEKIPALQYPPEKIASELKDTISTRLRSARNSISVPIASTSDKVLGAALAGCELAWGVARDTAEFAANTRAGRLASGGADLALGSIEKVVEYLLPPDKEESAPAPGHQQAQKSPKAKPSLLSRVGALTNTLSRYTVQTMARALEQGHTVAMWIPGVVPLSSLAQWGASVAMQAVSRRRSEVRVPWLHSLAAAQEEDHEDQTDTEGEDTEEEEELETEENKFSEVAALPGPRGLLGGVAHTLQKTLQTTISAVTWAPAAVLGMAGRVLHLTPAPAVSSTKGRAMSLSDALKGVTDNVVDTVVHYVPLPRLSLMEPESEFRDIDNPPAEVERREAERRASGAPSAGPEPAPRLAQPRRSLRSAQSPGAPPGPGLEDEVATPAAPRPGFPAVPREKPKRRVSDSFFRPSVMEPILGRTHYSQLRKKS
The experiment in a line: co-IP; Mac-ADSC lysates immunoprecipitated with Plin1 antibody (IgG as control) and protein A/G agarose beads; Western blot for USP15 and p62. On the technique in general: Immunoblotting shows a protein as a band on a membrane.

Experiment [2] concerns the target T2, USP15 (human (endogenous in Mac-ADSCs)) (UniProt Q9Y4E8).
T2 sequence: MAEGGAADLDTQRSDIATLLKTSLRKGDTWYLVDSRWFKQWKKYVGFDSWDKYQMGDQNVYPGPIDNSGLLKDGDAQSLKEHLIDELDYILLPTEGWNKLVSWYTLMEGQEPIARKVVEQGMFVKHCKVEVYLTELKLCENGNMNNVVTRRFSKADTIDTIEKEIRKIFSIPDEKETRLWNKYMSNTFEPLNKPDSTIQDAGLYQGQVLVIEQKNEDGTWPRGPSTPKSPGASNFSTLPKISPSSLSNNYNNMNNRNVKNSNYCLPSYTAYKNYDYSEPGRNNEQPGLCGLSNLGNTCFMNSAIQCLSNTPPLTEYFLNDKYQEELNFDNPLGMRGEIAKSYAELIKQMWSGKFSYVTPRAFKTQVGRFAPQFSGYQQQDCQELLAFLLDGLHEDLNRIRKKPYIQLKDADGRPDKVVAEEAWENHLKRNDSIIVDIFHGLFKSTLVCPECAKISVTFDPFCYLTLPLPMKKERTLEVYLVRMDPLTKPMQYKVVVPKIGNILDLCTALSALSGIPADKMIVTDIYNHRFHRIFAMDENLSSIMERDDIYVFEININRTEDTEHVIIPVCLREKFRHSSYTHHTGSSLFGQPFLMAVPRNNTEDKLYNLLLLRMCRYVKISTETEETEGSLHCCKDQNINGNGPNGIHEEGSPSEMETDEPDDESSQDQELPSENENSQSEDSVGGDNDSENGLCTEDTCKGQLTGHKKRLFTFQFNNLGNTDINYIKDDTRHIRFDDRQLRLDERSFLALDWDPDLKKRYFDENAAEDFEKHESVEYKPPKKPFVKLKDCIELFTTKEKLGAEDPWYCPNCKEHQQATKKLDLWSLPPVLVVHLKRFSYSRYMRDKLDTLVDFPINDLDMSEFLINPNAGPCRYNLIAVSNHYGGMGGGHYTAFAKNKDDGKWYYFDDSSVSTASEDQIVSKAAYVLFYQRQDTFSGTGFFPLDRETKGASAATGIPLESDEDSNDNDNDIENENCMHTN
The experiment in a line: co-IP; Mac-ADSC lysates immunoprecipitated with USP15 antibody (IgG as control) and protein A/G agarose beads; Western blot for p62 and Plin1.

On to SQSTM1/p62 (from UniProt Q13501 1-440), for which the binding result in experiment [1] and in experiment [2] was “binds” throughout.

B1: USP15 (enzyme, UniProt Q9Y4E8 1-981)
chain: MAEGGAADLDTQRSDIATLLKTSLRKGDTWYLVDSRWFKQWKKYVGFDSWDKYQMGDQNVYPGPIDNSGLLKDGDAQSLKEHLIDELDYILLPTEGWNKLVSWYTLMEGQEPIARKVVEQGMFVKHCKVEVYLTELKLCENGNMNNVVTRRFSKADTIDTIEKEIRKIFSIPDEKETRLWNKYMSNTFEPLNKPDSTIQDAGLYQGQVLVIEQKNEDGTWPRGPSTPKSPGASNFSTLPKISPSSLSNNYNNMNNRNVKNSNYCLPSYTAYKNYDYSEPGRNNEQPGLCGLSNLGNTCFMNSAIQCLSNTPPLTEYFLNDKYQEELNFDNPLGMRGEIAKSYAELIKQMWSGKFSYVTPRAFKTQVGRFAPQFSGYQQQDCQELLAFLLDGLHEDLNRIRKKPYIQLKDADGRPDKVVAEEAWENHLKRNDSIIVDIFHGLFKSTLVCPECAKISVTFDPFCYLTLPLPMKKERTLEVYLVRMDPLTKPMQYKVVVPKIGNILDLCTALSALSGIPADKMIVTDIYNHRFHRIFAMDENLSSIMERDDIYVFEININRTEDTEHVIIPVCLREKFRHSSYTHHTGSSLFGQPFLMAVPRNNTEDKLYNLLLLRMCRYVKISTETEETEGSLHCCKDQNINGNGPNGIHEEGSPSEMETDEPDDESSQDQELPSENENSQSEDSVGGDNDSENGLCTEDTCKGQLTGHKKRLFTFQFNNLGNTDINYIKDDTRHIRFDDRQLRLDERSFLALDWDPDLKKRYFDENAAEDFEKHESVEYKPPKKPFVKLKDCIELFTTKEKLGAEDPWYCPNCKEHQQATKKLDLWSLPPVLVVHLKRFSYSRYMRDKLDTLVDFPINDLDMSEFLINPNAGPCRYNLIAVSNHYGGMGGGHYTAFAKNKDDGKWYYFDDSSVSTASEDQIVSKAAYVLFYQRQDTFSGTGFFPLDRETKGASAATGIPLESDEDSNDNDNDIENENCMHTN
As to B1, the binding result in experiment [1] was “binds”.

B2: Plin1 (protein, UniProt O60240 1-522)
chain: MAVNKGLTLLDGDLPEQENVLQRVLQLPVVSGTCECFQKTYTSTKEAHPLVASVCNAYEKGVQSASSLAAWSMEPVVRRLSTQFTAANELACRGLDHLEEKIPALQYPPEKIASELKDTISTRLRSARNSISVPIASTSDKVLGAALAGCELAWGVARDTAEFAANTRAGRLASGGADLALGSIEKVVEYLLPPDKEESAPAPGHQQAQKSPKAKPSLLSRVGALTNTLSRYTVQTMARALEQGHTVAMWIPGVVPLSSLAQWGASVAMQAVSRRRSEVRVPWLHSLAAAQEEDHEDQTDTEGEDTEEEEELETEENKFSEVAALPGPRGLLGGVAHTLQKTLQTTISAVTWAPAAVLGMAGRVLHLTPAPAVSSTKGRAMSLSDALKGVTDNVVDTVVHYVPLPRLSLMEPESEFRDIDNPPAEVERREAERRASGAPSAGPEPAPRLAQPRRSLRSAQSPGAPPGPGLEDEVATPAAPRPGFPAVPREKPKRRVSDSFFRPSVMEPILGRTHYSQLRKKS
For the molecule B2, the binding entry in experiment [2] was “binds”.
